Each structure is given as a SMILES string. The list shows only some results of the screen, not a fair sample: it covers a few groups of compounds. Other doses and runs of a compound may be missing. T/C is the treated group as % of the vehicle group. Where survival is the endpoint, this PubChem deposit counts one and a half times the control or more as active, and values a quarter to a half above the control carry no call in these data; other NCI protocols may use other cut-offs. Some entries show no survivor count and are marked so; the dose need not have been tolerated. Schedules are NCI's codes, read here as Q, the interval in days (D) or hours (H), X, the number of doses. Some entries were tested several times; the values are given in rising order.

For the test, the system named is BDF1 mice, P388 leukemia ip, median survival T/C. As to the kind of experiment: NCI In Vivo Anticancer Drug Screen. Data for tumor model P388 Leukemia (intraperitoneal) in B6D2F1 (BDF1) mice. As to conditions: T/C endpoint: median survival time, higher T/C = longer survival. In short, it runs like this: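 In tumour-bearing mice, survival after compound treatment is set against the vehicle group and given as a quotient.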

[1] abbreviates: dose: 1.1 mg/kg/injection, schedule: Q01DX009 (ip), vehicle: Klucel (hydroxypropylcellulose) (HPC).
Setting [2] is: dose: 1.7 mg/kg/injection, schedule: Q01DX009 (ip), vehicle: Klucel (hydroxypropylcellulose) (HPC).
Setting [3] is: dose: 4.0 mg/kg/injection, schedule: Q01DX009 (ip), vehicle: Klucel (hydroxypropylcellulose) (HPC).

In the case of `Cc1ccc(C(=O)O)cc1N(CCCl)CCCl`, the T/C reads like this: (dose: 0.1 mg/kg/injection, schedule: Q01DX009 (ip), vehicle: Klucel (hydroxypropylcellulose) (HPC)) 100 % of control [survivor count not shown]; (dose: 0.2 mg/kg/injection, schedule: Q01DX009 (ip), vehicle: Klucel (hydroxypropylcellulose) (HPC)) 110 % of control [survivor count not shown]; (dose: 0.3 mg/kg/injection, schedule: Q01DX009 (ip), vehicle: Klucel (hydroxypropylcellulose) (HPC)) 130 % of control [survivor count not shown]; (dose: 0.37 mg/kg/injection, schedule: Q01DX009 (ip), vehicle: Klucel (hydroxypropylcellulose) (HPC)) 119 % of control [survivor count not shown]; (dose: 0.5 mg/kg/injection, schedule: Q01DX009 (ip), vehicle: Klucel (hydroxypropylcellulose) (HPC)) 134 % of control [survivor count not shown]; (dose: 0.75 mg/kg/injection, schedule: Q01DX009 (ip), vehicle: Klucel (hydroxypropylcellulose) (HPC)) 130 [survivor count not shown] and 147 % of control [survivor count not shown]. The T/C by setting is: under setting [1], 147 % of control [survivor count not shown]; (dose: 1.5 mg/kg/injection, schedule: Q01DX009 (ip), vehicle: Klucel (hydroxypropylcellulose) (HPC)) 157 % of control [survivor count not shown]; (dose: 1.5 mg/kg/injection, schedule: Q04DX003 (ip), vehicle: Klucel (hydroxypropylcellulose) (HPC)) 137 % of control [survivor count not shown]; under setting [2], 135 % of control [survivor count not shown]; (dose: 2.6 mg/kg/injection, schedule: Q01DX009 (ip), vehicle: Klucel (hydroxypropylcellulose) (HPC)) 140 % of control [survivor count not shown]; (dose: 3.0 mg/kg/injection, schedule: Q01DX009 (ip), vehicle: Klucel (hydroxypropylcellulose) (HPC)) 192 % of control [survivor count not shown]. Further, the T/C is 141 % of control [survivor count not shown] (dose: 3.0 mg/kg/injection, schedule: Q04DX003 (ip), vehicle: Klucel (hydroxypropylcellulose) (HPC)); 175 % of control [survivor count not shown] under setting [3]; 183 % of control [survivor count not shown] (dose: 4.4 mg/kg/injection, schedule: Q01DX009 (ip), vehicle: Klucel (hydroxypropylcellulose) (HPC)); 195 % of control [survivor count not shown] (dose: 6.0 mg/kg/injection, schedule: Q04DX003 (ip), vehicle: Klucel (hydroxypropylcellulose) (HPC)); 125 % of control [survivor count not shown] (dose: 6.3 mg/kg/injection, schedule: Q01DX009 (ip), vehicle: Klucel (hydroxypropylcellulose) (HPC)); 191 % of control [survivor count not shown] (dose: 6.6 mg/kg/injection, schedule: Q01DX009 (ip), vehicle: Klucel (hydroxypropylcellulose) (HPC)). For the same compound, the T/C was 163 % of control [survivor count not shown] (dose: 8.0 mg/kg/injection, schedule: Q04DX003 (ip), vehicle: Klucel (hydroxypropylcellulose) (HPC)); 220 [survivor count not shown] and 250 % of control [survivor count not shown] (dose: 12.0 mg/kg/injection, schedule: Q04DX003 (ip), vehicle: Klucel (hydroxypropylcellulose) (HPC)); 213 [survivor count not shown] and 231 % of control [survivor count not shown] (dose: 12.5 mg/kg/injection, schedule: Q04DX003 (ip), vehicle: Klucel (hydroxypropylcellulose) (HPC)); 183 % of control [survivor count not shown] (dose: 18.0 mg/kg/injection, schedule: Q04DX003 (ip), vehicle: Klucel (hydroxypropylcellulose) (HPC)); 100 % of control [survivor count not shown] (dose: 25.0 mg/kg/injection, schedule: Q04DX003 (ip), vehicle: Klucel (hydroxypropylcellulose) (HPC)).
For `ClCCN(CCCl)c1ccc(Oc2ccccc2)cc1`, the T/C (dose: 8.8 mg/kg/injection, schedule: Q01DX009 (ip), vehicle: saline with Tween-80) is 114 % of control [survivor count not shown]; the T/C (dose: 13.3 mg/kg/injection, schedule: Q01DX009 (ip), vehicle: saline with Tween-80) was 97 % of control [survivor count not shown]; the T/C (dose: 20.0 mg/kg/injection, schedule: Q01DX009 (ip), vehicle: saline with Tween-80) is 106 % of control [survivor count not shown]; the T/C (dose: 22.0 mg/kg/injection, schedule: Q01DX009 (ip), vehicle: saline with Tween-80) is 98 % of control [survivor count not shown]; the T/C (dose: 29.3 mg/kg/injection, schedule: Q01DX009 (ip), vehicle: other) is 171 % of control [survivor count not shown]; the T/C (dose: 30.0 mg/kg/injection, schedule: Q01DX009 (ip), vehicle: saline with Tween-80) was 100 % of control [survivor count not shown]. Also, the T/C (dose: 33.0 mg/kg/injection, schedule: Q01DX009 (ip), vehicle: saline with Tween-80) is 103 % of control [survivor count not shown]; the T/C (dose: 44.0 mg/kg/injection, schedule: Q01DX009 (ip), vehicle: other) is 131 % of control [survivor count not shown]; the T/C (dose: 50.0 mg/kg/injection, schedule: Q01DX009 (ip), vehicle: saline with Tween-80) was 122 % of control [survivor count not shown]; the T/C (dose: 66.0 mg/kg/injection, schedule: Q01DX009 (ip), vehicle: other) was 164 % of control [survivor count not shown]; the T/C (dose: 100.0 mg/kg/injection, schedule: Q01DX009 (ip), vehicle: other) is 145 [survivor count not shown] and 164 % of control [survivor count not shown]; the T/C (dose: 200.0 mg/kg/injection, schedule: Q01DX009 (ip), vehicle: other) was 175 % of control [survivor count not shown]. Moreover, the T/C (dose: 400.0 mg/kg/injection, schedule: Q01DX009 (ip), vehicle: other) is 100 % of control [survivor count not shown].
For `O=C(O)CCc1ccc(CN(CCCl)CCCl)cc1`, the T/C reads like this: (dose: 1.25 mg/kg/injection, schedule: Q04DX003 (ip), vehicle: saline with Tween-80) 145 % of control [survivor count not shown]; (dose: 1.65 mg/kg/injection, schedule: Q04DX003 (ip), vehicle: saline) 105 % of control [survivor count not shown]; (dose: 2.5 mg/kg/injection, schedule: Q04DX003 (ip), vehicle: saline with Tween-80) 163 % of control [survivor count not shown]; (dose: 2.5 mg/kg/injection, schedule: Q04DX003 (ip), vehicle: saline) 135 % of control [survivor count not shown]; (dose: 3.75 mg/kg/injection, schedule: Q04DX003 (ip), vehicle: saline) 130 % of control [survivor count not shown]; (dose: 5.0 mg/kg/injection, schedule: Q04DX003 (ip), vehicle: saline with Tween-80) 90 % of control [survivor count not shown].
Regarding `ClCCN(CCCl)Cc1nc2ccc(Cl)cc2[nH]1`, the T/C was 104 % of control [survivor count not shown] under setting [1]; 109 % of control [survivor count not shown] under setting [2]; 125 % of control [survivor count not shown] (dose: 2.7 mg/kg/injection, schedule: Q01DX009 (ip), vehicle: Klucel (hydroxypropylcellulose) (HPC)); 120 % of control [survivor count not shown] under setting [3]; 122 [survivor count not shown] and 163 % of control [survivor count not shown] (dose: 6.18 mg/kg/injection, schedule: Q01DX009 (ip), vehicle: Klucel (hydroxypropylcellulose) (HPC)); 145 [survivor count not shown], 172 [survivor count not shown], 177 % of control [survivor count not shown] (dose: 9.37 mg/kg/injection, schedule: Q01DX009 (ip), vehicle: Klucel (hydroxypropylcellulose) (HPC)). The T/C by setting is: (dose: 14.0 mg/kg/injection, schedule: Q01DX009 (ip), vehicle: Klucel (hydroxypropylcellulose) (HPC)) 86 [survivor count not shown] and 145 % of control [survivor count not shown]; (dose: 18.75 mg/kg/injection, schedule: Q04DX003 (ip), vehicle: Klucel (hydroxypropylcellulose) (HPC)) 100 % of control [survivor count not shown]; (dose: 37.5 mg/kg/injection, schedule: Q04DX003 (ip), vehicle: Klucel (hydroxypropylcellulose) (HPC)) 111 % of control [survivor count not shown].

For the origin of these results see PubChem BioAssay AID328 (DTP/NCI, 2004).
